Experimental data from US20240315978A1, “PHARMACEUTICAL COMPOSITIONS COMPRISING ACALABRUTINIB” (NATCO PHARMA LIMITED, priority 2021, published 2024).
At least one compound was matched to its structure with a doubt left.

Assay: Stability in HDPE bottles at 40±2° C./75±5% RH for 6 months
Format: physicochemical
Conditions: after accelerated stability studies

CC#CC(=O)N1CCC[C@H]1c1nc(-c2ccc(C(=O)Nc3ccccn3)cc2)c2c(N)nccn12 [crystalline Form III of Acalabrutinib]
change in polymorphic form: does not show any change in polymorphic form
